Patent publication US20240009277A1, “POLYPEPTIDES FOR USE IN THE TREATMENT AND PREVENTION OF NEURODEGENERATIVE DISEASES” (IMMUNE SYSTEM KEY LTD., priority 2020, published 2024)
Not every detail of the peptide structures is certain; ends, links or a residue may be inferred. Non-standard residues stand in square brackets, D forms with d. Residues, ends and D or L forms follow the SMILES beside them. No end group written: not given here.

Legend:
soluble ST2 = test: Secretion of proinflammatory cytokines by human microglial cells: soluble ST2; assay type: cell-based; details: data not shown
[1] = test system: Glucose Transporter 1 (GLUT1); test: Western blot protein expression in SHSY5Y cells (Example 5): GLUT1; assay type: cell-based, human; details: 20-50 μg/ml, 48 hours
SOD1 = test: RT-PCR gene expression in SH-SY5Y cells: SOD1; assay type: cell-based, human; details: 0-2 μg/ml, 24 hours, calibrated against beta-actin
Tumor protein P53 (P53) = test: Western blot protein expression in SHSY5Y cells (Example 5): p53; assay type: cell-based, human; details: 20-50 μg/ml, 48 hours
[2] = test system: tyrosine hydroxylase (TH); test: RT-PCR gene expression in SH-SY5Y cells: tyrosine hydroxylase; assay type: cell-based, human; details: 0-2 μg/ml, 24 hours, calibrated against beta-actin
BDNF = test: RT-PCR gene expression in SH-SY5Y cells: BDNF; assay type: cell-based, human; details: 0-2 μg/ml, 24 hours, calibrated against beta-actin
TNFα = test: Secretion of proinflammatory cytokines by human microglial cells: TNFα; assay type: cell-based; details: data not shown
IL-6 = test: Secretion of proinflammatory cytokines by human microglial cells: IL-6; assay type: cell-based; details: data not shown
Glut1 = test: Western blot of glucose transporters in SH-SY5Y cells (Example 4): Glut1; assay type: cell-based, human; details: 1, 5 and 10 μg/ml, 24 hours
[3] = test system: X-Box Binding Protein 1 (XBP1); test: Western blot protein expression in SHSY5Y cells (Example 5): XBP1; assay type: cell-based, human; details: 48 hours
SH-SY5Y cells = test: Cell viability assay (Resazurin) upon H2O2 insult; assay type: cell-based, human; details: 24 hours; for viability of cells upon H2O2 insult, D versus L polypeptide: 0.1 mM H2O2, 0, 0.5, 1, 1.5 and 2 μg/ml polypeptide
Glut3 = test: Western blot of glucose transporters in SH-SY5Y cells (Example 4): Glut3; assay type: cell-based, human; details: 1, 5 and 10 μg/ml, 24 hours

Molecule | secretion level of soluble ST2 (soluble ST2) | increase of expression level of the protein Glut1 [1] | SOD1 gene expression (SOD1) | p53 expression (Tumor protein P53 (P53)) | TH gene expression [2] | BDNF gene expression (BDNF) | secretion level of TNFα (TNFα) | secretion level of IL-6 (IL-6) | level of Glut1 protein (Glut1) | induction of expression of the protein XBP1 ([3]; 20 μg/ml) | induction of expression of the protein XBP1 ([3]; 50 μg/ml) | viability of cells upon H2O2 insult (SH-SY5Y cells; 0.01 μM and 0.1 μM H2O2, 0, 0.5, 1, 1.5 and 2 μg/ml polypeptide) | viability of cells upon H2O2 insult, D versus L polypeptide (SH-SY5Y cells) | level of Glu3 protein (Glut3)
CC(C)C[C@@H](NC(=O)[C@H](NC(=O)[C@@H](CO)NC(=O)[C@H]1CCCN1C(=O)[C@@H](CC(C)C)NC(=O)[C@@H](Cc1ccccc1)NC(=O)[C@@H](Cc1ccccc1)NC(=O)[C@H](NC(=O)[C@@H](Cc1c[nH]c2ccccc12)NC(=O)[C@H](N)Cc1c[nH]c2ccccc12)[C@H](C)O)[C@H](C)O)C(=O)N[C@H](Cc1c[nH]c2ccccc12)C(=O)N[C@H](CCC(=O)O)C(=O)N[C@H](CCCNC(=N)N)C(=O)N[C@H](CCCCN)C(=O)O [dTCApFs, Trp Trp Thr Phe Phe Leu Pro Ser Thr Leu Trp Glu Arg Lys] (H-[dW][dW][dT][dF][dF][dL][dP][dS][dT][dL][dW][dE][dR][dK]-OH; N-terminus and C-terminus assumed) | downregulate | 3-9 fold | strongly induced | completely downregulated | slightly induced | slightly induced | downregulate | downregulate | increased with the increase in dTCApFs doses | up to 14 fold | about 6 fold | increased viability of cells in a dose depended manner | better than L-amino acid CTApFs | increased with the increase in dTCApFs doses
WWTFFLPSTLWERK [L-amino acid polypeptide, Trp Trp Thr Phe Phe Leu Pro Ser Thr Leu Trp Glu Arg Lys, reference compound] |  | almost no effect |  | modest down regulation |  |  |  |  |  | about 2 fold | about 2 fold |  | lower than in cells treated with dTCApFs | 
